Values from PubChem BioAssay AID504784 (Drosophila RNAi Screening Center, 2011)

- Screen: 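Search for regulators of lipid droplet storage in oleate-fed fly cells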 (primary screen)
- Cell system: Drosophila Kc167 embryonic cells
- Knock-down reagent: long dsRNA against Drosophila genes, about 250 ng dsRNA per well
- Timing: 4 days
- Treatment: cells fed 400 µM oleic acid bound to BSA
- Detection: 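Microscope images give a droplet-to-nucleus area ratio, taken as log and converted to a screen-wide B-score; higher values mean greater lipid storage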
- Direction: droplet/nuclear area B-score: higher = more stored lipid (overstorage)
In all, the deposit lists about 17,000 reagents; shown is a random part of those with a known target gene and a result. 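Each column is one replicate's B-score; the combined score over replicates was not deposited, so single values may mislead.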 Reagents against one gene are numbered here. Names joined by + are all predicted targets of the reagent.

predicted target	reagent no.	droplet/nuclear area B-score, replicate 1	droplet/nuclear area B-score, replicate 2	droplet/nuclear area B-score, replicate 3
ScpX (GeneID 44183)	1	-2.97	-0.526	
Rab4 (GeneID 36992)	1	0.122	-0.674	
l(2)SH0834 (GeneID 34386)	1	4.97	3.64	
Zn72D (GeneID 39764)	1	-0.181	-0.00516	0.19
Spn85F (GeneID 41221)	1	0.0973	-0.0699	
Usp30 (GeneID 31519)	1	-0.246	-0.902	
Npc2a (GeneID 33374)	1	-0.182	0.721	
FAM21 (GeneID 37331)	1	-0.961	-1.37	
sofe (GeneID 32016)	1	-0.278	1.04	1.06
CG32204 (GeneID 317913)	1	-0.426	1.91	
dnr1 (GeneID 37575)	1	-0.249	1.75	
dnr1 (GeneID 37575)	2	1.2	-2.05	
Vmat (GeneID 3346192)	1	-1.1	-0.425	
Vmat (GeneID 3346192)	2	1.92	-0.291	
Vmat (GeneID 3346192)	3	-1.69	-0.582	
Acer (GeneID 34189)	1	0.934	-0.0673	
al (GeneID 33208)	1	-0.572	-0.0534	0.229
CG3597 (GeneID 33420)	1	0.00585	-1.91	
fng (GeneID 40314)	1	-0.588	-0.245	0.814
fng (GeneID 40314)	2	1.35	-0.796	1.9
fng (GeneID 40314)	3	-0.0256	0.31	
CG1231 (GeneID 38060)	1	-0.956	1.78	
slp2 (GeneID 33608)	1	-0.215	1.18	
CG15343 (GeneID 31765)	1	0.079	-0.000189	
Or59b (GeneID 37715)	1	0.0871	-1.01	
CG12682 (GeneID 31415)	1	0.322	-0.673	
Slik (GeneID 37893)	1	-1.45	0.127	
PolG1 (GeneID 34792)	1	-0.752	-1.23	
CG7606 (GeneID 8673956)	1	-0.877	-0.211	
CG13049 (GeneID 39788)	1	-0.532	2.83	
CG14879 (GeneID 41982)	1	-0.139	1.73	
CG17738 (GeneID 41490)	1	-0.00492	-0.556	
CG13331 (GeneID 36503)	1	1.06	1.77	
CG8534 (GeneID 41210)	1	-1.75	1.57	
CG5828 (GeneID 33742)	1	0.0985	0.859	
mtsh (GeneID 34141)	1	1.97	1.84	
Ac3 (GeneID 35419)	1	0.611	-0.593	
PolrMT (GeneID 33285)	1	2.81	4.92	
bap (GeneID 42537)	1	-0.619	-0.409	
Mrgn1 (GeneID 32330)	1	0.391	0.524	-0.559
pns (GeneID 38178)	1	-1.86	-0.0498	
Pih1D1 (GeneID 34685)	1	0.454	1.14	
CG31253 + CG31131	1	-0.33	0.357	
tho2 (GeneID 326153)	1	-1.98	-1.7	
CG13230 (GeneID 50237)	1	-0.082	-1.42	
sano (GeneID 37185)	1	-0.74		
inv (GeneID 36239)	1	-0.758	-0.129	
edin (GeneID 317900)	1	1.6	-0.315	
drm (GeneID 49638)	1	-0.143	-1.41	
CG18764 (GeneID 59239)	1	-1.87	3.95	
CG13725 (GeneID 39928)	1	-0.962	1.34	
stau (GeneID 37065)	1	-0.155	0.206	
CG11158 (GeneID 32327)	1	-0.899	-1.33	3.14
bam (GeneID 43038)	1	-1.69	0.107	
pip (GeneID 40104)	1	0.187	-0.245	
Rgk1 (retired record) (GeneID 37219)	1	0.43	6.29	
Rgk1 (retired record) (GeneID 37219)	2	-0.89	0.18	
CG14857 (GeneID 41791)	1	-0.492	-0.402	
CG3368 (GeneID 43292)	1	3.69	1.36	
Cnx99A + Cnx14D	1	-0.326	0.0579	
CG12689 (GeneID 31676)	1	0.162	-0.565	
senju (GeneID 33734)	1	1.29	-0.355	
CG42663 (GeneID 36403)	1	0.536	1.3	
CG42663 (GeneID 36403)	2	-1.2	0.0557	0.038
Dp (GeneID 36461)	1	2.45	-0.0557	
Acsx3 (GeneID 42354)	1	0.0895	1.84	
CG3085 (GeneID 37663)	1	-0.248	-0.343	
CDK2AP1 (GeneID 32050)	1	0.654	0.28	-0.00429
CG31223 (GeneID 326127)	1	1.64	1.03	
anchor (GeneID 39965)	1	-1.51	-0.208	0.827
CG1275 (GeneID 38286)	1	0.339	-1.66	
His2B:CG33870 + His2B:CG33868 + His2B:CG33882 + 21 more	1	1.23	0.0393	
CG5386 (GeneID 42613)	1	1.26	3.25	
CG5681 (GeneID 35074)	1	-1.44	-1.47	
mon2 (GeneID 326157)	1	0.0166	0.381	
CG1986 (GeneID 31925)	1	-1.1	0.894	2.42
CG31650 (GeneID 326150)	1	-2.5	-3.89	1.18
CG6656 (GeneID 42576)	1	-1.82	-0.942	
CG11149 (GeneID 33800)	1	-0.189	-1.71	
CG11170 (GeneID 37533)	1	0.0863	0.251	
CG12288 (GeneID 35027)	1	-0.203	0.882	
B52 (GeneID 41670)	1	-3.02	-1.83	1.89
Ugt303B3 (GeneID 42774)	1	2.54	0.126	
Rexo5 (GeneID 38740)	1	0.916	-0.381	
CG13995 (GeneID 33851)	1	0.933	0.352	0.67
CG13995 (GeneID 33851)	2	-1.26	-2.53	
CG13995 (GeneID 33851)	3	1.53	0.811	
stx (GeneID 32005)	1	1.27	-1.72	1.35
stx (GeneID 32005)	2	1.31	-0.36	1.2
stx (GeneID 32005)	3	-0.245	3.79	
CG2608 (GeneID 35323)	1	-0.0626	0.00666	
fok (GeneID 44380)	1	-0.617	-1.08	
step (GeneID 35425)	1	-1.67	-2.37	
step (GeneID 35425)	2	0.0514	0.868	
SCCRO3 (GeneID 36426)	1	-2.89	0.549	
S1P (GeneID 40399)	1	0.234	-0.342	
CG13659 (GeneID 43059)	1	-0.272	0.203	
Adsl (GeneID 42051)	1	-0.3	0.302	
swa (GeneID 31580)	1	-0.444	0.303	-0.949
CG15147 (GeneID 35069)	1	-1.08	-0.901	0.121
CG15147 (GeneID 35069)	2	-0.0724	-0.288	
Cyt-c1 (GeneID 38612)	1	0.78	0.0631	
CG32023 (GeneID 317827)	1	-0.0404	-1.05	
Taf6 (GeneID 40134)	1	-0.4	-0.0553	1.01
CG1077 (GeneID 40751)	1	0.0791	-0.781	5.37
